For assay [1], the target named is T1, Recombinant human Robo1 encoding the extracellular five Ig-like domains fused with the Fc domains of human IgG1 (human) (UniProt Q9Y6N7+P01857). The assay can be described thus: Protein A bead pulldown with rSlit2 and/or rRspo1, immunoblot. (In general: A western blot detects proteins with antibodies after separation by electrophoresis.)
The target in assay [2] is T1, Recombinant human Robo1 encoding the extracellular five Ig-like domains fused with the Fc domains of human IgG1 (human). Description: Protein A bead pulldown with Robo1-Fc, rSlit2 and/or rRspo1, immunoblot (FIG. 18A).

Amino acid sequences for entries named in this document (tags omitted). A change or cut given only in a name is not applied to a line headed by its entry.
UniProt Q9Y6N7: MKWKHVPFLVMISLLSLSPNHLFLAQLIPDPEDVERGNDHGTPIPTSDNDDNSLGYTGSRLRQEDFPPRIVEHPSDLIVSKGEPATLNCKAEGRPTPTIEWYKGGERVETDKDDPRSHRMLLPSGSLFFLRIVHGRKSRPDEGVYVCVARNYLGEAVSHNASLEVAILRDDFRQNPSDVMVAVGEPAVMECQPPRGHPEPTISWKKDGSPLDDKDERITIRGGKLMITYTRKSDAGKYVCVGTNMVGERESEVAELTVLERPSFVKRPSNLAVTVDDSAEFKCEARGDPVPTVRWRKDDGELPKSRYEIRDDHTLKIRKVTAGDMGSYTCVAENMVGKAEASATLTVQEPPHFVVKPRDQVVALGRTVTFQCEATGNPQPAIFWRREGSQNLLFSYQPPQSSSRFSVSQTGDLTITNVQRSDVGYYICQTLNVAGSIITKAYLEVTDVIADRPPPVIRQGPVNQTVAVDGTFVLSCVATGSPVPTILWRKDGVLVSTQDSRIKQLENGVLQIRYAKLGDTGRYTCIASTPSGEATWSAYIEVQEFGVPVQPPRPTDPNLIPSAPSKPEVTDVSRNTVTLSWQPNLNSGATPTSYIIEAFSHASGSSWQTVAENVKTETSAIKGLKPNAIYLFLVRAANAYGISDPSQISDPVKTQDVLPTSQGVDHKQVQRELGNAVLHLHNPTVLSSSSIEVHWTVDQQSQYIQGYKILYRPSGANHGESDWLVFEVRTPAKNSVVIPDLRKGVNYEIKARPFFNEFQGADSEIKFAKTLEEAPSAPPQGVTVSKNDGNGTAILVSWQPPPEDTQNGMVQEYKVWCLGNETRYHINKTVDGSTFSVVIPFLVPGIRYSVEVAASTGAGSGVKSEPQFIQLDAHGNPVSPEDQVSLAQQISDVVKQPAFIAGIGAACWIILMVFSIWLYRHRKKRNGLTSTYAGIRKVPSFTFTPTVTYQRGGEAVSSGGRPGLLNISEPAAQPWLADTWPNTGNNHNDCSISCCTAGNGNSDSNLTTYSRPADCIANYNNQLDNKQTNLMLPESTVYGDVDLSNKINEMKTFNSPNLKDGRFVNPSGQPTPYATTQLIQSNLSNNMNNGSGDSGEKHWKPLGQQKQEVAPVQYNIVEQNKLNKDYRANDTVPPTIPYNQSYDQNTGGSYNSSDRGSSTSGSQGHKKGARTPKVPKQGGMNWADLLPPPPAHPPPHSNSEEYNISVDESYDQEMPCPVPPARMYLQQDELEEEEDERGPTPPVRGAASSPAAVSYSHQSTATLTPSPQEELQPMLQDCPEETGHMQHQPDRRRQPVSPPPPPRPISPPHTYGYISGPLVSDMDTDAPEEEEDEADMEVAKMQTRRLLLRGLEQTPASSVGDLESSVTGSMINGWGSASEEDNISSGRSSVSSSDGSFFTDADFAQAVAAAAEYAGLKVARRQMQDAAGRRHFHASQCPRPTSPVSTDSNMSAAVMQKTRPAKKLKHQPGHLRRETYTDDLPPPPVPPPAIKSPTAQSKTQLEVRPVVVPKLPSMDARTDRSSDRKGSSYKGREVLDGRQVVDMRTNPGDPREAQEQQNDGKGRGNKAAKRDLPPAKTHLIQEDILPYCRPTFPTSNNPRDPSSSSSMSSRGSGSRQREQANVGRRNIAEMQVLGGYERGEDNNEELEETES

No constants are given. Whether binding was seen depends on the method and setting. Binding seen in cells or lysates may run through a third protein. Some entries that bind do so weakly or less than the wild type.

B1: Recombinant Slit2 (ligand, UniProt O94813 31-1529, looked up)
chain: QCSCSGSTVDCHGLALRSVPRNIPRNTERLDLNGNNITRITKTDFAGLRHLRVLQLMENKISTIERGAFQDLKELERLRLNRNHLQLFPELLFLGTAKLYRLDLSENQIQAIPRKAFRGAVDIKNLQLDYNQISCIEDGAFRALRDLEVLTLNNNNITRLSVASFNHMPKLRTFRLHSNNLYCDCHLAWLSDWLRQRPRVGLYTQCMGPSHLRGHNVAEVQKREFVCSGHQSFMAPSCSVLHCPAACTCSNNIVDCRGKGLTEIPTNLPETITEIRLEQNTIKVIPPGAFSPYKKLRRIDLSNNQISELAPDAFQGLRSLNSLVLYGNKITELPKSLFEGLFSLQLLLLNANKINCLRVDAFQDLHNLNLLSLYDNKLQTIAKGTFSPLRAIQTMHLAQNPFICDCHLKWLADYLHTNPIETSGARCTSPRRLANKRIGQIKSKKFRCSAKEQYFIPGTEDYRSKLSGDCFADLACPEKCRCEGTTVDCSNQKLNKIPEHIPQYTAELRLNNNEFTVLEATGIFKKLPQLRKINFSNNKITDIEEGAFEGASGVNEILLTSNRLENVQHKMFKGLESLKTLMLRSNRITCVGNDSFIGLSSVRLLSLYDNQITTVAPGAFDTLHSLSTLNLLANPFNCNCYLAWLGEWLRKKRIVTGNPRCQKPYFLKEIPIQDVAIQDFTCDDGNDDNSCSPLSRCPTECTCLDTVVRCSNKGLKVLPKGIPRDVTELYLDGNQFTLVPKELSNYKHLTLIDLSNNRISTLSNQSFSNMTQLLTLILSYNRLRCIPPRTFDGLKSLRLLSLHGNDISVVPEGAFNDLSALSHLAIGANPLYCDCNMQWLSDWVKSEYKEPGIARCAGPGEMADKLLLTTPSKKFTCQGPVDVNILAKCNPCLSNPCKNDGTCNSDPVDFYRCTCPYGFKGQDCDVPIHACISNPCKHGGTCHLKEGEEDGFWCICADGFEGENCEVNVDDCEDNDCENNSTCVDGINNYTCLCPPEYTGELCEEKLDFCAQDLNPCQHDSKCILTPKGFKCDCTPGYVGEHCDIDFDDCQDNKCKNGAHCTDAVNGYTCICPEGYSGLFCEFSPPMVLPRTSPCDNFDCQNGAQCIVRINEPICQCLPGYQGEKCEKLVSVNFINKESYLQIPSAKVRPQTNITLQIATDEDSGILLYKGDKDHIAVELYRGRVRASYDTGSHPASAIYSVETINDGNFHIVELLALDQSLSLSVDGGNPKIITNLSKQSTLNFDSPLYVGGMPGKSNVASLRQAPGQNGTSFHGCIRNLYINSELQDFQKVPMQTGILPGCEPCHKKVCAHGTCQPSSQAGFTCECQEGWMGPLCDQRTNDPCLGNKCVHGTCLPINAFSYSCKCLEGHGGVLCDEEEDLFNPCQAIKCKHGKCRLSGLGQPYCECSSGYTGDSCDREISCRGERIRDYYQKQQGYAACQTTKKVSRLECRGGCAGGQCCGPLRSKRRKYSFECTDGSSFVDEVEKVVKCGCTRCVS
Consider B1, for which the binding entry in assay [1] and in assay [2] was “binds” throughout.

These data come from patent publication US20160000865A1.
